Our source for the binding values is paper PMC11685698.

Results are given in words; binding and its absence hold for the method and conditions named. Binding seen in cells or lysates may run through a third protein. A result given as binding can be weak or reduced; the word gives no strength.

One experiment deals with T1, SEMA7A (UniProt O75326).
T1 sequence: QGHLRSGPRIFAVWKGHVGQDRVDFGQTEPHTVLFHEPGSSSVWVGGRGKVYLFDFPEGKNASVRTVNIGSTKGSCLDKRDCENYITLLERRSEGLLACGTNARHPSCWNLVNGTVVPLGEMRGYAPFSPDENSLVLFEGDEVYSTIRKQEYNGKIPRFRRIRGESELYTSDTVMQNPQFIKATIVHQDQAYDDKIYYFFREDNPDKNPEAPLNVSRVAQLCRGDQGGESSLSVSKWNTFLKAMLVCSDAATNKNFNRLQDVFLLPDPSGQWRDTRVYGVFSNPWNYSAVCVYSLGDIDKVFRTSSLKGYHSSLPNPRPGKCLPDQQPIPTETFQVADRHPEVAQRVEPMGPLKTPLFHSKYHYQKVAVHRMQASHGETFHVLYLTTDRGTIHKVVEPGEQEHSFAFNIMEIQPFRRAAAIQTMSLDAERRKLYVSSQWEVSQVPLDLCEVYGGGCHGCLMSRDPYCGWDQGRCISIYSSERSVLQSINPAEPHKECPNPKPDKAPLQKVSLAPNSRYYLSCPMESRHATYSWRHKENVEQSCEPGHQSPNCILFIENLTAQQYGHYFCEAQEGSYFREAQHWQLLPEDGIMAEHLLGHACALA
The experiment is described as follows: co-IP; lysate of HEC-1-A cells transfected with a SEMA7A overexpression plasmid; 200 µL protein sample with primary antibody or normal rabbit IgG for 12 h at 4 °C, Protein A/G agarose, beads washed three times with cell-lysis buffer, analysed by WB; done in duplicate; both directions (anti-SEMA7A IP and anti-p85 IP).

In experiment [1] the target is PI3K regulatory subunit p85 (human (endogenous in HEC-1-A)). The experiment is described as above.

As to “PI3K regulatory subunit p85 (human (endogenous in HEC-1-A))”, in the experiment with SEMA7A, the binding entry is on record as “binds”.

B1: SEMA7A (protein, UniProt O75326 45-648)
chain: T1 sequence
In the case of B1, the binding result in experiment [1] is “binds”.
